Paper PMC8281596

Amino acid sequences for entries named in this document (tags omitted).
UniProt Q91Z83: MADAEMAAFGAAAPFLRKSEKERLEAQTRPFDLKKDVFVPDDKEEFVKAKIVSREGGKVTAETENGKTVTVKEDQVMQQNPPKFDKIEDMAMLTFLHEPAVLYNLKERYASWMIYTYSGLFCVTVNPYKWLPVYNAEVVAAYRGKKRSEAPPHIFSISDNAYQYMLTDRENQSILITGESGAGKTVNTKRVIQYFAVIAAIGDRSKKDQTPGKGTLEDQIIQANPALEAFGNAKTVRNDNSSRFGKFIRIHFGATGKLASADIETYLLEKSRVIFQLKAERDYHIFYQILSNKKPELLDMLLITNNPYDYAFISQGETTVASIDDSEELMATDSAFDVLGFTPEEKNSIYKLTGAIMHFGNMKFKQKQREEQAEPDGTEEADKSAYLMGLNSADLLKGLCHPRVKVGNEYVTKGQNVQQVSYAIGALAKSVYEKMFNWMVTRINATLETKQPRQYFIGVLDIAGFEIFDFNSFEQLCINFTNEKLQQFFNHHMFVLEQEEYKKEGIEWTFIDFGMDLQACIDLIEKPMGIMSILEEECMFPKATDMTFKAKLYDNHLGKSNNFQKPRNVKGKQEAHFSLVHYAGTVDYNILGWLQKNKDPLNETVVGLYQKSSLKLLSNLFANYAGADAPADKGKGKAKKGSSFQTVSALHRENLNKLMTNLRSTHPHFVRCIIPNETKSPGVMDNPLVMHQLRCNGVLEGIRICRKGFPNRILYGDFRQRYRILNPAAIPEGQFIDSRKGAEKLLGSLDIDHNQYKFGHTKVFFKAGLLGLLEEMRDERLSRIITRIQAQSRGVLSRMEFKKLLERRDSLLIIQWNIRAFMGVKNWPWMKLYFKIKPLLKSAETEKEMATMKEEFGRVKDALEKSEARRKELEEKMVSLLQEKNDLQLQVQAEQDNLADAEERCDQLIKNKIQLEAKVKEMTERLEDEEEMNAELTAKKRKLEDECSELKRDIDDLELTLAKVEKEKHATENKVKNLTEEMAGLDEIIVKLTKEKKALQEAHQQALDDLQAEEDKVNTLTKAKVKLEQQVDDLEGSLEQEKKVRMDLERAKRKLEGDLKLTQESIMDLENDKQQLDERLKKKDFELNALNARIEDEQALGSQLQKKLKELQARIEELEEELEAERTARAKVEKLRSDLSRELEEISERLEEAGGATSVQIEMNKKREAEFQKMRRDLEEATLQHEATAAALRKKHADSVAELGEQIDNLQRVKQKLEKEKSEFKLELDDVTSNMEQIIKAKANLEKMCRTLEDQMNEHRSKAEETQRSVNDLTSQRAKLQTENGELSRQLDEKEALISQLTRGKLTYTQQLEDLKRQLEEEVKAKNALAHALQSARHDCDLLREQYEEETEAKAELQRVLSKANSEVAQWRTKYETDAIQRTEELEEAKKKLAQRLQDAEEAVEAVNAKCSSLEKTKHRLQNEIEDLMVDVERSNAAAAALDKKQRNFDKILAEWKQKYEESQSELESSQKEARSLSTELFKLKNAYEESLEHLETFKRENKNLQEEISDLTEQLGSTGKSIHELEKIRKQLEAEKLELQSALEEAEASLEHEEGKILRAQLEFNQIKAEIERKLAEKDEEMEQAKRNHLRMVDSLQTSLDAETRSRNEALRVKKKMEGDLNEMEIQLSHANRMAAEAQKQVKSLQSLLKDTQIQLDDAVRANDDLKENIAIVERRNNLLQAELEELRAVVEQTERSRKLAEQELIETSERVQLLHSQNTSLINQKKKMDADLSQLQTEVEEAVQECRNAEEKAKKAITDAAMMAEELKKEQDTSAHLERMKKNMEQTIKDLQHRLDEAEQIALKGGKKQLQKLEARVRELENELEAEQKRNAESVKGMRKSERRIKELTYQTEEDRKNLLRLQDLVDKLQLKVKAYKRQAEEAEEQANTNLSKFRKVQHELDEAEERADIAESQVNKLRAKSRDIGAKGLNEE
UniProt Q02566: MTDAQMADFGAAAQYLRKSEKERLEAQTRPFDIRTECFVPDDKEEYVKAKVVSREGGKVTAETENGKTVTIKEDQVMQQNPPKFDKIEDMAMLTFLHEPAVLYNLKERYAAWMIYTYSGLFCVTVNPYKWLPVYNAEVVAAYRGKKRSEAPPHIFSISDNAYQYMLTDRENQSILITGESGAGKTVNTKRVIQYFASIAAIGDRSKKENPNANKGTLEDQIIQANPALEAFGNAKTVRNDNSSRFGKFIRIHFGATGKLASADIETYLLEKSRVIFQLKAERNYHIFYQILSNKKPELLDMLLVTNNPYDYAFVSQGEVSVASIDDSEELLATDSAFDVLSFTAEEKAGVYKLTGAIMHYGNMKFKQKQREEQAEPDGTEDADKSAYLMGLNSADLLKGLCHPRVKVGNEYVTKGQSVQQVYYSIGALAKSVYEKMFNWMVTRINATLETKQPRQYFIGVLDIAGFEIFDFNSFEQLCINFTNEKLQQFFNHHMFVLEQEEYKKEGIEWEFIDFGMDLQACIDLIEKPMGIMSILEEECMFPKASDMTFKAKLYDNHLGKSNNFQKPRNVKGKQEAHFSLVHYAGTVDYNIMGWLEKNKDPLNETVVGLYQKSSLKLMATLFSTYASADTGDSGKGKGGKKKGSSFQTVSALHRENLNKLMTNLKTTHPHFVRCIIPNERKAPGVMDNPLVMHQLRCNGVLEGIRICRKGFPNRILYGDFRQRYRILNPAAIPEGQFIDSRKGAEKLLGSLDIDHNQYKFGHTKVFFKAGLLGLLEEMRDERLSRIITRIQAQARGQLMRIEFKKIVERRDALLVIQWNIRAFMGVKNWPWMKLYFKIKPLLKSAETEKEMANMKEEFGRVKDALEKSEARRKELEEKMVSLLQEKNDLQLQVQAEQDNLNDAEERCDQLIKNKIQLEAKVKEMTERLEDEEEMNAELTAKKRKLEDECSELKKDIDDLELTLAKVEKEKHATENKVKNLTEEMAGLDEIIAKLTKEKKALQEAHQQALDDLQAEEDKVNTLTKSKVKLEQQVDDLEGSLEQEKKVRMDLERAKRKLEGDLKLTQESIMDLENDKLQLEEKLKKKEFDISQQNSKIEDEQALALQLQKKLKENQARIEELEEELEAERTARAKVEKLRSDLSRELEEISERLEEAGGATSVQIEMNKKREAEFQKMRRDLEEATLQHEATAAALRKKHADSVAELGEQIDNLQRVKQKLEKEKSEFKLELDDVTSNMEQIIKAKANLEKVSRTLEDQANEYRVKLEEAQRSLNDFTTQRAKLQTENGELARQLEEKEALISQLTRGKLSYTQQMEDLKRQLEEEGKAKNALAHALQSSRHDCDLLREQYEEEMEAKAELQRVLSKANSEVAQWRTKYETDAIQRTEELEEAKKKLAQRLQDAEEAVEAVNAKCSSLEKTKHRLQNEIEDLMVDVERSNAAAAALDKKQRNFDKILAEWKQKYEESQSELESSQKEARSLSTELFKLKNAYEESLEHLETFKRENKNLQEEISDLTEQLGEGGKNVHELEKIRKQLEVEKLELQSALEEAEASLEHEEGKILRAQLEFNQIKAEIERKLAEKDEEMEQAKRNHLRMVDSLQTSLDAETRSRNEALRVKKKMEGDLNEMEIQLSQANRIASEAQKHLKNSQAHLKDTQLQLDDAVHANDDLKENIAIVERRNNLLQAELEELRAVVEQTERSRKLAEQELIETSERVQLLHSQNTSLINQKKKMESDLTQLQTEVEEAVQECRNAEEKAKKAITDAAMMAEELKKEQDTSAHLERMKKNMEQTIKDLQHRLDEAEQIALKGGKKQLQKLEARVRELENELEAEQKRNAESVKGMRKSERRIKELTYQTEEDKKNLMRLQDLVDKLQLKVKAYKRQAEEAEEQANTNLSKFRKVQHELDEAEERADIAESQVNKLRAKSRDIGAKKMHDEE

Target: T1, YTHDF2 (mouse (endogenous in primary mouse cardiomyocytes)) (UniProt Q91YT7)
T1 sequence: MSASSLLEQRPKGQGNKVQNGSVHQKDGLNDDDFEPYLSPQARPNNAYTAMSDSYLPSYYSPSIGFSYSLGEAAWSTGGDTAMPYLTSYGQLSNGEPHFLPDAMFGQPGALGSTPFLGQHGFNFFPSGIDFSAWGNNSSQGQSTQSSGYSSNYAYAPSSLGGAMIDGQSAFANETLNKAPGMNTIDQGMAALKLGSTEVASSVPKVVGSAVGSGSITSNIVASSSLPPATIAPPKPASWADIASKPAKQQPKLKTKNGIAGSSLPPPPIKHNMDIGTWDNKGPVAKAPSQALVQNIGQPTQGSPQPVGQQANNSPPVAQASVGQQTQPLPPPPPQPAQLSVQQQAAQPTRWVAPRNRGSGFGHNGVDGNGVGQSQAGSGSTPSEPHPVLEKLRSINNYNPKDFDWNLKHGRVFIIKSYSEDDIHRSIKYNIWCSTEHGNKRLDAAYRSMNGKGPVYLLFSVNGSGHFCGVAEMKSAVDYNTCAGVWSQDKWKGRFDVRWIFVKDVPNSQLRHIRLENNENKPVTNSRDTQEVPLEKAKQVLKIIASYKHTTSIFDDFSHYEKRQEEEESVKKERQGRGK
Test: affinity purification with mass spectrometry; lysate of primary cardiomyocytes treated with ISO or DMSO for 24 h; 300 μg proteins incubated with anti-YTHDF2 or rabbit IgG at 4 °C overnight, protein A/G-agarose beads; SDS-PAGE, silver stain, LC-MS/MS

| binding | Substance |
| --- | --- |
| binds | MYH7 (beta-myosin heavy chain) (from UniProt Q91Z83 1-1935) |
| binds | MYH6 (α-myosin heavy chain) (from UniProt Q02566 1-1938) |

No constants are given. Whether binding was seen depends on the method and setting. In cells and extracts the contact can be indirect. A yes stands for co-enrichment or nearness to the bait. Other partners may have been found.
